Each structure is given as a SMILES string. Where a name gives a salt, the structure may show the parent alone. Some of the results follow. Plates or batches differ in their baseline, so values are only roughly comparable.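 Biofilm, quantified by the absorbance of well-retained crystal violet, is assayed using the K-12 laboratory model grown unshaken in 96-well plates. Candidate specific biofilm inhibitors were drugs that sharply lowered staining yet reduced free-floating growth by less than 70%.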

This experiment concerns Escherichia coli W3110. Description: biofilm formation (crystal violet staining) relative to untreated control; higher = more biofilm. To be noted: 10 µM; 20-24 h; 30 °C; TB.
Consider `CC(C)(C(=O)O)c1ccc(C(O)CCCN2CCC(C(O)(c3ccccc3)c3ccccc3)CC2)cc1` (configuration not stated) [Fexofenadine hydrochloride], for which the biofilm formation was found to be 79%.

`Cc1cc(C(C)(C)C)c(O)c(C)c1CC1=NCCN1` [Oxymetazoline hydrochloride]: the biofilm formation worked out at 77%.

On to `CN(C)CCCN1c2ccccc2Sc2ccccc21` [Promazine hydrochloride], for which the biofilm formation came to 79%.

`NS(=O)(=O)c1cc(C(=O)O)cc(N2CCCC2)c1Oc1ccccc1` [Piretanide] yielded a biofilm formation of 65%.

Take `O=C(O)c1cccnc1Nc1cccc(C(F)(F)F)c1` [Niflumic acid]: the biofilm formation stood at 110%.

In turn, `COc1ccc(C(Cl)=C(c2ccc(OC)cc2)c2ccc(OC)cc2)cc1` [Chlorotrianisene] showed a biofilm formation of 56%.

Regarding `Cc1oncc1C(=O)Nc1ccc(C(F)(F)F)cc1` [Leflunomide], the biofilm formation was 80%.

For the compound `CCOC(=O)[C@H](CCc1ccccc1)N[C@@H](C)C(=O)N1Cc2ccccc2C[C@H]1C(=O)O` [Quinapril hydrochloride], the biofilm formation amounted to 48%.

The compound `CC(CCc1ccccc1)NCC(O)c1ccc(O)c(C(N)=O)c1` (configuration not stated) [Labetalol hydrochloride] yielded a biofilm formation of 47%.

The compound `CN1C(C)(C)CCCC1(C)C` [Pempidine] yielded a biofilm formation of 60%.

As to `Cc1onc(-c2c(Cl)cccc2Cl)c1C(=O)N[C@@H]1C(=O)N2[C@@H]1SC(C)(C)[C@@H]2C(=O)O` [Dicloxacillin sodium salt hydrate], the biofilm formation is 110%.

The compound `CN(C)/N=N/c1[nH]cnc1C(N)=O` [Dacarbazine] had a biofilm formation of 88%.

On to `CC[N+](C)(C)Cc1ccccc1Br` [Bretylium tosylate], for which the biofilm formation was 58%.

As for `C[N+](C)(C)CCCCCC[N+](C)(C)C` [Hexamethonium dibromide dihydrate], the biofilm formation amounted to 68%.

With `Cc1cc2c(cc1S(N)(=O)=O)S(=O)(=O)CCC2` [Meticrane], the biofilm formation was found to be 77%.

`NCCNCCNCCNCCN` [Tetraethylenepentamine pentahydrochloride] showed a biofilm formation of 43%.

As to `COC(=O)Nc1nc2cc(C(=O)c3ccccc3)ccc2[nH]1` [Mebendazole], the biofilm formation was determined as 68%.

`CC(C)c1ccc2oc3nc(N)c(C(=O)O)cc3c(=O)c2c1` [Amlexanox] showed a biofilm formation of 70%.

In turn, `CC1(C)S[C@@H]2[C@H](NC(=O)[C@H](NC(=O)N3CCNC3=O)c3ccccc3)C(=O)N2[C@H]1C(=O)O` [Azlocillin sodium salt] showed a biofilm formation of 38%.

`Nc1nc(Cl)nc2c1ncn2[C@H]1C[C@H](O)[C@@H](CO)O1` [Cladribine] gave a biofilm formation of 69%.

In turn, `CN[C@@H]1[C@H](O[C@H]2[C@H](O[C@H]3[C@H](O)[C@@H](O)[C@H](N=C(N)N)[C@@H](O)[C@@H]3N=C(N)N)O[C@@H](C)[C@]2(O)C=O)O[C@@H](CO)[C@H](O)[C@H]1O` [Streptomycin sulfate] returned a biofilm formation of 39%.

Regarding `OCCOCCN1CCN(C2=Nc3ccccc3Sc3ccccc32)CC1` [Quetiapine hemifumarate], the biofilm formation is 84%.

In the case of `COc1cccc2c1C(=O)c1c(O)c3c(c(O)c1C2=O)C[C@@](O)(C(=O)CO)C[C@@H]3O[C@H]1C[C@H](N)[C@H](O)[C@H](C)O1` [Doxorubicin hydrochloride], the biofilm formation was 69%.

In turn, `CCC(=O)O[C@@H](O[P@](=O)(CCCCc1ccccc1)CC(=O)N1C[C@H](C2CCCCC2)C[C@H]1C(=O)O)C(C)C` [Fosinopril] yielded a biofilm formation of 101%.

On to `CC1(C)S[C@@H]2[C@H](NC(=O)[C@H](N)c3ccc(O)cc3)C(=O)N2[C@H]1C(=O)O` [Amoxicillin], for which the biofilm formation was 49%.

For `CCCCC(=O)O[C@H]1CC[C@H]2[C@@H]3CCc4cc(O)ccc4[C@H]3CC[C@]12C` [Estradiol Valerate], the biofilm formation came out at 85%.

In the case of `N=C(N)c1ccc(OCCCCCOc2ccc(C(=N)N)cc2)cc1` [Pentamidine isethionate], the biofilm formation was determined as 91%.

`Cn1c(NCCN(CCO)CCCc2ccc([N+](=O)[O-])cc2)cc(=O)n(C)c1=O` [Nifekalant] had a biofilm formation of 73%.

With `Fc1ccc(C(c2ccc(F)cc2)N2CCN(C/C=C/c3ccccc3)CC2)cc1` [Flunarizine dihydrochloride], the biofilm formation turned out to be 72%.

For `COc1ccc(CCN(C)CCCC(C#N)(c2ccc(OC)c(OC)c2)C(C)C)cc1OC` (configuration not stated) [Verapamil hydrochloride], the biofilm formation was 73%.

In the case of `Cc1onc(-c2ccccc2)c1-c1ccc(S(N)(=O)=O)cc1` [Valdecoxib], the biofilm formation was found to be 81%.

As for `CCCc1cc(=O)[nH]c(=S)[nH]1` [Propylthiouracil], the biofilm formation was determined as 61%.

In turn, `C[N+]1(CCCCC[N+]2(C)CCCC2)CCCC1` [Pentolinium bitartrate] came in with a biofilm formation of 61%.

`Oc1ncnc2[nH]ncc12` [Allopurinol] registered a biofilm formation of 75%.

In the case of `CCCCCCC[N+](CC)(CC)CCCCc1ccc(Cl)cc1` [Clofilium tosylate], the biofilm formation is 68%.

The compound `CNCCCC1c2ccccc2C=Cc2ccccc21` [Protriptyline hydrochloride] returned a biofilm formation of 62%.

`C[C@]12CCC(=O)C=C1CC[C@@H]1[C@@H]2[C@@H](O)C[C@@]2(C)[C@H]1CC[C@]2(O)C(=O)CO` [Hydrocortisone base] registered a biofilm formation of 71%.

As to `CC(=O)[C@H]1CC[C@H]2[C@@H]3CCC4=CC(=O)CC[C@]4(C)[C@H]3CC[C@]12C` [Progesterone], the biofilm formation is 90%.

As for `NC(Cc1cc(I)c(Oc2cc(I)c(O)c(I)c2)c(I)c1)C(=O)O` (configuration not stated) [Thyroxine (L)], the biofilm formation stood at 100%.

For the compound `CN(C)CC/C=C1/c2ccccc2Sc2ccc(Cl)cc21` [Chlorprothixene hydrochloride], the biofilm formation turned out to be 69%.

As to `COc1ccc2[nH]c([S+]([O-])Cc3ncc(C)c(OC)c3C)nc2n1` (configuration not stated) [Tenatoprazole], the biofilm formation was 74%.

`CN(C)CCOC(c1ccccc1)c1ccccc1` [Diphenhydramine hydrochloride] yielded a biofilm formation of 68%.

`C[C@]12CC[C@@H]3c4ccc(O)cc4CC[C@H]3[C@@H]1CC[C@@H]2O` [Estradiol-17 beta] displayed a biofilm formation of 94%.

The compound `CCCN(CCC)S(=O)(=O)c1ccc(C(=O)O)cc1` [Probenecid] gave a biofilm formation of 82%.

As to `Clc1ccc(CSC(Cn2ccnc2)c2ccc(Cl)cc2Cl)cc1` (configuration not stated) [Sulconazole nitrate], the biofilm formation was 56%.

The compound `Nc1ccn([C@@H]2O[C@H](CO)[C@@H](O)C2(F)F)c(=O)n1` [Gemcitabine] returned a biofilm formation of 88%.

For `CN1C(=O)CC(c2ccccc2)C1=O` (configuration not stated) [Phensuximide], the biofilm formation was found to be 81%.

`CN(C)CCN(Cc1ccccc1)c1ccccn1` [Tripelennamine hydrochloride] had a biofilm formation of 69%.

As to `CC1CNc2c(cccc2S(=O)(=O)N[C@@H](CCCNC(=N)N)C(=O)N2CC[C@@H](C)C[C@@H]2C(=O)O)C1` (some centres not stated) [Argatroban], the biofilm formation was 76%.

For the compound `CC(=O)O[C@@]12CO[C@@H]1C[C@H](O)[C@@]1(C)C(=O)[C@H](O)C3=C(C)[C@@H](OC(=O)[C@H](O)[C@@H](NC(=O)OC(C)(C)C)c4ccccc4)C[C@@](O)([C@@H](OC(=O)c4ccccc4)[C@H]21)C3(C)C` [Docetaxel], the biofilm formation was 88%.

`N=C(N)NC(=O)Cc1c(Cl)cccc1Cl` [Guanfacine hydrochloride]: the biofilm formation stood at 64%.

The compound `Clc1ccc(Cn2c(CN3CCCC3)nc3ccccc32)cc1` [Clemizole hydrochloride] yielded a biofilm formation of 68%.

For `COc1cc2nc(N(C)CCCNC(=O)C3CCCO3)nc(N)c2cc1OC` (configuration not stated) [Alfuzosin hydrochloride], the biofilm formation stood at 63%.

The compound `O=C(O)COCCN1CCN(C(c2ccccc2)c2ccc(Cl)cc2)CC1` (configuration not stated) [Cetirizine dihydrochloride] displayed a biofilm formation of 68%.

On to `N[C@@H]1CONC1=O` [D-cycloserine], for which the biofilm formation came to 69%.

Consider `C#C[C@]1(OC(C)=O)CC[C@H]2[C@@H]3CCC4=CC(=NO)CC[C@@H]4[C@H]3CC[C@@]21CC` (mixture of isomers) [Norgestimate], for which the biofilm formation came to 54%.

Turning to `CC(=O)O[C@]1(C(C)=O)CC[C@H]2[C@@H]3C=C(Cl)C4=CC(=O)[C@@H]5C[C@@H]5[C@]4(C)[C@H]3CC[C@@]21C` [Cyproterone acetate], the biofilm formation amounted to 59%.

Compound `Clc1ccc(CO/N=C(\Cn2ccnc2)c2ccc(Cl)cc2Cl)c(Cl)c1` [Oxiconazole Nitrate] had a biofilm formation of 60%.

The compound `CC1(C)[C@H](C(=O)O)N2C(=O)C[C@H]2S1(=O)=O` [Sulbactam] registered a biofilm formation of 86%.

`Cc1ncc(CO)c(CO)c1O` [Pyridoxine hydrochloride] showed a biofilm formation of 80%.

Turning to `CCc1c(C)[nH]c2c1C(=O)C(CN1CCOCC1)CC2` (configuration not stated) [Molindone hydrochloride], the biofilm formation is 79%.

The compound `CCC1(c2ccccc2)NC(=O)N(C)C1=O` (configuration not stated) [Mephenytoin] had a biofilm formation of 82%.

In turn, `CC1=C(/C=C/C(C)=C/C=C/C(C)=C/C(=O)O)C(C)(C)CCC1` [Retinoic acid] yielded a biofilm formation of 49%.

In turn, `NC(=O)c1cc[n+](CC2=C(C(=O)[O-])N3C(=O)[C@@H](NC(=O)[C@@H](c4ccccc4)S(=O)(=O)O)[C@H]3SC2)cc1` [Cefsulodin sodium salt] gave a biofilm formation of 63%.

In turn, `CC(=O)Oc1ccccc1C(=O)O` [Acetylsalicylic acid] returned a biofilm formation of 102%.

Compound `N=C(N)NS(=O)(=O)c1ccc(N)cc1` [Sulfaguanidine] yielded a biofilm formation of 91%.

As to `CCOC(=O)OC(C)OC(=O)[C@@H]1N2C(=O)[C@@H](NC(=O)[C@H](N)c3ccccc3)[C@H]2SC1(C)C` (some centres not stated) [Bacampicillin hydrochloride], the biofilm formation is 47%.

Regarding `CCOC(=O)[C@H](CCc1ccccc1)N[C@H]1CCc2ccccc2N(CC(=O)O)C1=O` [Benazepril hydrochloride], the biofilm formation amounted to 74%.

With `COC1=C(OC)C(=O)C(CCCCCCCCCCO)=C(C)C1=O` [Idebenone], the biofilm formation is 97%.

In the case of `NCCCC[C@H](N[C@@H](CCc1ccccc1)C(=O)O)C(=O)N1CCC[C@H]1C(=O)O` [Lisinopril], the biofilm formation was found to be 82%.

Take `CC(C)(C)NC[C@H](O)COc1nsnc1N1CCOCC1` [Timolol maleate salt]: the biofilm formation is 53%.

For the compound `O=C(Nc1cccc2c(=O)cc(-c3nnn[nH]3)oc12)c1ccc(OCCCCc2ccccc2)cc1` [Pranlukast], the biofilm formation is 45%.
